Data taken from PMC10801393 (Clinical and Translational Science, 2024).
Where two headings read alike, the source gives them in different places.

Tests used:
[1] = 120 mg single oral dose
clinical = conditions: female, human, in vivo, 120 mg, AUCinf
[2] = healthy volunteers; 120 mg single oral dose; cited from earlier work

CL/F ([1]; ABCB1 3435 wild type): 169.25 L/h
CL/F ([1]; carriers of the ABCB1 3435 allele T): 139.51 L/h
AUC(0-inf) (clinical; carriers of two copies of the reference GCG haplotype (ABCB1 diplotype)): 726 ng·h/mL
AUC(0-inf) (clinical; does not carry any CGC haplotype (ABCB1 diplotype)): 724 ng·h/mL
AUC(0-inf) (clinical; one copy of GCG haplotype (ABCB1 diplotype)): 837 ng·h/mL
Compound: CC(C)(C(=O)O)c1ccc(C(O)CCCN2CCC(C(O)(c3ccccc3)c3ccccc3)CC2)cc1 (stereo not drawn) [fexofenadine, Fexofenadine]
C max range [2]: 31 to 177 ng/mL
